Assay results published in patent publication US9745339B2 (GRAFFINITY PHARMACEUTICALS GMBH, priority 2012, dated 2017).

How the values were obtained:
Tocilizumab = assay: Microtiter plate chromatography of resins: binding and elution of Tocilizumab
Method: (§1) Resins were assessed in packed mode by microtiter plate chromatography. For each column, approximately 30 μl of resin were transferred to a 384-well filter plate and sealed with appropriate top fits. Columns with rProtein A SEPHAROSE 4 FF and MABSORBENT A2P HF were included as controls.
(§2) Either 3.3 cv of whole IgGs dissolved at 0.5 mg ml^−1 in PBS or undiluted host cell proteins (HCP) were injected onto columns.
(§3) Unbound protein was washed from columns with 5 cv of PBS prior to elution with 5 cv of glycine buffer at pH 2.5. […] During injection of samples, speed was reduced to 10 g and centrifugation time increased to 5-10 min. Effluent fractions were collected in 384-well plates and concentrations of protein were analyzed by Bradford assay. Protein masses mi, mft and me (see below) were calculated as the product of fraction volume and measured protein concentration.
(§4) The fraction of bound protein was calculated as the difference between the total mass of protein injected mi and the mass of protein detected in the flowthrough mft, divided by the total mass of protein injected.
(§5) The yield of protein was calculated as the mass of protein eluted me, divided by the mass of protein injected mi.
(§6) The fraction of bound protein and the yield of protein were calculated for each resin based on data for whole IgG-antibodies. In the case of host cell proteins, only the fraction of bound protein is given. Selectivity of resins was calculated from data for Bevacizumab whole IgG and host cell proteins. Due to limited experimental precision, selectivity was truncated for values beyond 10.

[1] = tested on: poly-IgG from human serum (h-poly-IgG); assay: Microtiter plate chromatography of resins: binding and elution of human poly-IgG
Method: as §1, §2, §3, §4, §5, §6

[2] = mass eluted (glycine pH 2.5) / mass injected
[3] = L55-73: estimated values based on the knowledge obtained from L01-L54

Compound | Tocilizumab Yield (Tocilizumab; [2]) | h-poly-IgG Yield [1, 2] | Tocilizumab Yield (Tocilizumab; [3]) | h-poly-IgG Yield [1, 3]
NCCOCCOc1ccc(C(=O)Nc2nnc(-c3ccco3)s2)cc1 [Ligand L37, 4-(5-Amino-3-oxa-1-pentyloxy)benzoic acid N-[5-(2-furyl)-1,3,4-thiadiazol-2-yl] amide] | 103% | 101% |  | 
NCCCNc1ccc(C(=O)Nc2nnc(-c3ccco3)s2)cc1[N+](=O)[O-] [Ligand L18, 4-[(3-Amino-1-propyl)amino]-3-nitrobenzoic acid N-[5-(2-furyl)-1,3,4-thiadiazol-2-yl]amide] | 100% | 107% |  | 
NCCCn1cnc2cc(NC(=O)c3cn4ccsc4n3)ccc21 [Ligand L30, 1-(3-Amino-1-propyl)-5-[(imidazo-[2,1-b]thiazol-6-yl)carboxamido]benzimidazole] | 99% | 88% |  | 
NCCCn1cnc2cc(C(=O)Nc3nnc(-c4ccccc4)s3)ccc21 [Ligand L33, 1-(3-Amino-1-propyl)benzimidazole-5-carboxylic acid N-(2-phenyl-1,3,4-thiadiazol-5-yl) amide] | 100% | 94% |  | 
NCCCn1cnc2cc(C(=O)Nc3nccs3)ccc21 [Ligand L16, 1-(3-Amino-1-propyl)benzimidazole-5-carboxylic acid N-(thiazol-2-yl) amide] | 103% | 92% |  | 
NCCCn1cnc2cc(C(=O)Nc3nc4c(s3)CCC4)ccc21 [Ligand L32, 1-(3-Amino-1-propyl)benzimidazole-5-carboxylic acid N-(5,6-dihydro-(4H)-cyclopentathiazol-2-yl) amide] | 98% | 91% |  | 
Cc1nsc(NC(=O)c2ccc3c(c2)ncn3CCCN)n1 [Ligand L36, 1-(3-Amino-1-propyl)benzimidazole-5-carboxylic acid N-(3-methyl-1,2,4-thiadiazol-5-yl) amide] | 96% | 87% |  | 
Cn1nc(C(=O)Nc2ccc3c(c2)C(=O)N(CCCN)CCO3)c2ccccc21 [Ligand L03, 4-(3-Amino-1-propyl)-7-[(1-methylindazol-3-yl)carboxamido]-2,3,4,5-tetrahydrobenzo[f][1,4]oxazepin-5-one] | 103% |  |  | 
Cc1nnc(NC(=O)c2ccc3c(c2)ncn3CCCN)s1 [Ligand L14, 1-(3-Amino-1-propyl)benzimidazole-5-carboxylic acid N-(2-methyl-1,3,4-thiadiazol-5-yl) amide] | 101% | 90% |  | 
NCCCn1cnc2cc(C(=O)Nc3nc(-c4ccccc4)ns3)ccc21 [Ligand L22, 1-(3-Amino-1-propyl)benzimidazole-5-carboxylic acid N-(3-phenyl-1,2,4-thiadiazol-5-yl) amide] | 94% | 108% |  | 
Cc1nc2cc(C(=O)Nc3nnc(-c4ccco4)s3)ccc2n1CCOCCOCCNC(=O)CC[C@H](N)C(=O)NCCOCCOCCn1c(C)nc2cc(C(=O)Nc3nnc(-c4ccco4)s3)ccc21 [Ligand L54] | 100% | 99% |  | 
CCc1nc2cc(C(=O)Nc3nc(-c4ccco4)ns3)ccc2n1CCCN [Ligand L65, 1-(3-Amino-1-propyl)-2-ethylbenzimidazole-5-carboxylic acid N-[3-(2-furyl)-1,2,4-thiadiazol-5-yl] amide] |  |  | >80% | >70%
NCCCn1c(=O)c(=O)[nH]c2cc(C(=O)Nc3nnc(-c4ccco4)s3)ccc21 [Ligand L28, 1-(3-Amino-1-propyl)-2,3-dioxo-1,2,3,4-tetrahydroquinoxaline-6-carboxylic acid N-[5-(2-furyl)-1,3,4-thiadiazol-2-yl]amide] | 101% | 72% |  | 
NCCCOc1ccc(C(=O)Nc2nnc(-c3ccco3)s2)cc1 [Ligand L20, 4-[(1-Amino-3-propyl)oxy]benzoic acid N-[5-(2-furyl)-1,3,4-thiadiazol-2-yl] amide] | 92% | 105% |  | 
CCc1nc2cc(C(=O)Nc3nnc(-c4ccoc4)s3)ccc2n1CCCN [Ligand L66, 1-(3-Amino-1-propyl)-2-ethylbenzimidazole-5-carboxylic acid N-[5-(3-furyl)-1,3,4-thiadiazol-2-yl] amide] |  |  | >80% | >70%
Cn1nc(C(=O)Nc2ccc3c(c2)ncn3CCCN)c2ccccc21 [Ligand L01, 1-(3-Amino-1-propyl)-5-[(1-methylindazol-3-yl)carboxamido]benzimidazole] | 110% | 97% |  | 
CCSc1nnc(NC(=O)c2ccc3c(c2)ncn3CCCN)s1 [Ligand L12, 1-(3-Amino-1-propyl)benzimidazole-5-carboxylic acid N-(2-ethylthio-1,3,4-thiadiazol-5-yl) amide] | 106% | 96% |  | 

Compound | Tocilizumab Yield (Tocilizumab; [2]) | h-poly-IgG Yield [1, 2] | Tocilizumab Yield (Tocilizumab; [3]) | h-poly-IgG Yield [1, 3]
Cc1csc(NC(=O)c2ccc3c(c2)ncn3CCCN)n1 [Ligand L15, 1-(3-Amino-1-propyl)benzimidazole-5-carboxylic acid N-(4-methylthiazol-2-yl) amide] | 103% | 93% |  | 
NCCCn1cnc2cc(C(=O)Nc3nc4ccccc4o3)ccc21 [Ligand L08, 1-(3-Amino-1-propyl)benzimidazole-5-carboxylic acid N-(benzoxazol-2-yl) amide] | 100% | 95% |  | 
CCc1nc2cc(C(=O)Nc3nc(-c4ccccn4)cs3)ccc2n1CCCN [Ligand L43, 1-(3-Amino-1-propyl)-2-ethylbenzimidazole-5-carboxylic acid N-[4-(2-pyridyl)thiazol-2-yl] amide] | 108% | 94% |  | 
NCCCNc1nc(-c2ccc(C(=O)Nc3nnc(-c4ccco4)s3)cc2)cs1 [Ligand L70, 4-[2-(3-Amino-1-propylamino)thiazol-4-yl]benzoic acid N-[5-(2-furyl)-1,3,4-thiadiazol-2-yl]amide] |  |  | >80% | >40%
CCc1nnc(NC(=O)c2ccc3c(c2)ncn3CCCN)s1 [Ligand L07, 1-(3-Amino-1-propyl)benzimidazole-5-carboxylic acid N-(2-ethyl-1,3,4-thiadiazol-5-yl) amide] | 100% | 97% |  | 
NCCCn1cnc2cc(C(=O)Nc3nc(-c4ccco4)cs3)ccc21 [Ligand L57, 1-(3-Amino-1-propyl)benzimidazole-5-carboxylic acid N-[4-(2-furyl)thiazol-2-yl] amide] |  |  | >80% | >70%
NCCCn1cnc2cc(C(=O)Nc3ccc(-c4ccco4)nn3)ccc21 [Ligand L59, 1-(3-Amino-1-propyl)benzimidazole-5-carboxylic acid N-[6-(2-furyl)pyridazin-3-yl] amide] |  |  | >80% | >70%
NCCCn1cnc2cc(C(=O)Nc3nc4ccccc4s3)ccc21 [Ligand L10, 1-(3-Amino-1-propyl)benzimidazole-5-carboxylic acid N-(benzothiazol-2-yl) amide] | 103% | 104% |  | 
Cc1nc2cc(C(=O)Nc3nc(-c4ccco4)cs3)ccc2n1CCCN [Ligand L62, 1-(3-Amino-1-propyl)-2-methylbenzimidazole-5-carboxylic acid N-[4-(2-furyl)thiazol-2-yl] amide] |  |  | >80% | >70%
NCCOCCOCCn1cnc2cc(C(=O)Nc3nc(-c4ccccn4)cs3)ccc21 | 103% | 95% |  | 
CCc1nc2cc(C(=O)Nc3ccc(-c4ccco4)nn3)ccc2n1CCCN [Ligand L69, 1-(3-Amino-1-propyl)-2-ethylbenzimidazole-5-carboxylic acid N-[6-(2-furyl)pyridazin-3-yl]amide] |  |  | >80% | >50%
COc1ccc(NC(=O)c2nn(CCCN)c3ccccc23)cc1C(N)=O [Ligand L04, 1-(3-Amino-1-propyl)indazole-3-carboxylic acid N-(3-carbamoyl-4-methoxyphenyl) amide] | 97% | 86% |  | 
NCCCn1cnc2cc(C(=O)Nc3nnc(C4CC4)s3)ccc21 [Ligand L35, 1-(3-Amino-1-propyl)benzimidazole-5-carboxylic acid N-(2-cyclopropyl-1,3,4-thiadiazol-5-yl) amide] | 98% | 96% |  | 
CCc1nc2cc(C(=O)Nc3nc(-c4ccco4)cs3)ccc2n1CCCN [Ligand L67, 1-(3-Amino-1-propyl)-2-ethylbenzimidazole-5-carboxylic acid N-[4-(2-furyl)thiazol-2-yl] amide] |  |  | >80% | >70%
Cc1nc2cc(C(=O)Nc3ncc(-c4ccco4)s3)ccc2n1CCCN [Ligand L63, 1-(3-Amino-1-propyl)-2-methylbenzimidazole-5-carboxylic acid N-[5-(2-furyl)thiazol-2-yl] amide] |  |  | >80% | >70%
NCCCn1cnc2cc(C(=O)Nc3nncs3)ccc21 [Ligand L13, 1-(3-Amino-1-propyl)benzimidazole-5-carboxylic acid N-(1,3,4-thiadiazol-2-yl) amide] | 103% | 93% |  | 
